In patent US9738677B2, “Amphotericin B derivative with reduced toxicity” (priority 2014, dated 2017):
Some of these results come from one statement about several compounds together. At least one structure is not confirmed: it was looked up by name or label, or the drawing left a doubt.

Test system: human red blood cells
Assay: Minimum hemolysis concentration (MHC) assay
Format: cell-based
Conditions: concentration causing 90% hemolysis of human red blood cells, 2 hours, 37° C.

C[C@@H]1[C@H](O)[C@@H](C)/C=C/C=C/C=C/C=C/C=C/C=C/C=C/[C@H](O[C@H]2C[C@@H](N)[C@H](O)[C@@H](C)O2)C[C@@H]2O[C@](O)(C[C@@H](O)C[C@@H](O)[C@H](O)CC[C@@H](O)C[C@@H](O)CC(=O)O[C@H]1C)C[C@H](O)[C@H]2C(=O)O [C2′deOAmB]
MHC (minimum hemolytic concentration): > 500 µM
